Results published in patent US20110124877A1, “5-BENZYL-4-AZOLYLMETHYL-4-SPIRO[2.4]HEPTANOL DERIVATIVES, METHODS FOR PRODUCING THE SAME, AND AGRO-HORTICULTURAL AGENTS AND INDUSTRIAL MATERIAL PROTECTING AGENTS THEREOF” (KUREHA CORPORATION, priority 2008, published 2011).
Some entries share one result that the patent states for a list of compounds. Some compounds share one range, which may span the group rather than tell each member.

What was measured:
[1] = tested on: wood denaturing microorganism (Coriolus versicolor); experiment: Antimicroorganism effect, mycelial extension on PDA plate; assay type: cell-based; details: PDA plate medium, 50 mg/l, 1 to 3 days
[2] = tested on: Aureobasidium microorganism (Aureobasidium sp.); experiment: as above; assay type: cell-based; details: PDA plate medium, 50 mg/l, 1 to 3 days
[3] = tested on: citrous blue mold microorganism (Penicillium italicum); experiment: as above; assay type: cell-based; details: PDA plate medium, 50 mg/l, 1 to 3 days
[4] = tested on: wheat eye spot microorganism (Pseudocercosporella herpotrichoides); experiment: as above; assay type: cell-based; details: PDA plate medium, 50 mg/l, 1 to 3 days
[5] = tested on: wood denaturing microorganism (Tyromyces palustris); experiment: as above; assay type: cell-based; details: PDA plate medium, 50 mg/l, 1 to 3 days
[6] = tested on: barley scald microorganism (Rhynchosporium secalis); experiment: as above; assay type: cell-based; details: PDA plate medium, 50 mg/l, 1 to 3 days
[7] = tested on: rice blast microorganism (Pyricularia oryzae); assay type: cell-based; details: PDA plate medium, 50 mg/l, 1 to 3 days
[8] = tested on: barley loose smut microorganism (Ustilago nuda); experiment: Antimicroorganism effect, mycelial extension on PDA plate; assay type: cell-based; details: PDA plate medium, 50 mg/l, 1 to 3 days
[9] = tested on: penicillium microorganism (Penicillium sp.); experiment: as above; assay type: cell-based; details: PDA plate medium, 50 mg/l, 1 to 3 days
[10] = tested on: wheat take-all microorganism (Gaeumannomyces graminis); experiment: as above; assay type: cell-based; details: PDA plate medium, 50 mg/l, 1 to 3 days
[11] = tested on: Curvularia microorganism (Curvularia sp.); experiment: as above; assay type: cell-based; details: PDA plate medium, 50 mg/l, 1 to 3 days
[12] = tested on: wheat fusarium blight microorganism (Fusarium graminearum); assay type: cell-based; details: PDA plate medium, 50 mg/l, 1 to 3 days
wheat powdery mildew = experiment: Wheat powdery mildew preventing effect by seed treatment; assay type: in vivo, Erysiphe graminis f. sp tritici; details: 2 mg compound per 1 g wheat seeds, 7, 14, 28 and 56 days after seeding, stems and leaves
[13] = tested on: apple alternaria blotch microorganism (Alternaria alternata); experiment: Antimicroorganism effect, mycelial extension on PDA plate; assay type: cell-based; details: PDA plate medium, 50 mg/l, 1 to 3 days
[14] = tested on: anthracnose microorganism (Glomerella cingulata); experiment: as above; assay type: cell-based; details: PDA plate medium, 50 mg/l, 1 to 3 days
[15] = tested on: Mucor microorganism (Mucor sp.); experiment: as above; assay type: cell-based; details: PDA plate medium, 50 mg/l, 1 to 3 days
[16] = tested on: wheat septoria bloth microorganism (Septoria tritici); experiment: as above; assay type: cell-based; details: PDA plate medium, 50 mg/l, 1 to 3 days
[17] = tested on: wheat powdery mildew microorganism; experiment: Wheat powdery mildew preventing effect assay; assay type: in vivo, Erysiphe graminis f. sp tritici; details: wheat two-leaf phase, 500 mg/L sprayed at 1,000 L/ha, 14 days after inoculation
[18] = tested on: Tricoderma microorganism (Trichoderma sp.); experiment: Antimicroorganism effect, mycelial extension on PDA plate; assay type: cell-based; details: PDA plate medium, 50 mg/l, 1 to 3 days
[19] = tested on: rice bakanae disease microorganism (Giberella fujikuroi); experiment: as above; assay type: cell-based; details: PDA plate medium, 50 mg/l, 1 to 3 days
[20] = tested on: wheat stagonospora blotch microorganism (Phaeosphaeria nodorum); experiment: as above; assay type: cell-based; details: PDA plate medium, 50 mg/l, 1 to 3 days
[21] = tested on: wheat leaf rust microorganism; experiment: Wheat leaf rust preventing effect assay; assay type: in vivo, Puccinia recondita; details: wheat two-leaf phase, 500 mg/L sprayed at 1,000 L/ha, 9 to 14 days after inoculation
rice plant = experiment: Rice growth regulation assay; assay type: in vivo; details: seed treatment, 36 mg compound per 180 g rice seeds, plant height 20 days after seeding
[22] = tested on: cucumber fusarium wilt microorganism (Fusarium oxysporum); experiment: Antimicroorganism effect, mycelial extension on PDA plate; assay type: cell-based; details: PDA plate medium, 50 mg/l, 1 to 3 days
[23] = tested on: sugar beet cercospora leaf spot microorganism (Cercospora beticola); experiment: as above; assay type: cell-based; details: PDA plate medium, 50 mg/l, 1 to 3 days
[24] = tested on: ricesheath blight microorganism (Rhizoctonia solani); experiment: as above; assay type: cell-based; details: PDA plate medium, 50 mg/l, 1 to 3 days
[25] = tested on: sclerotinia rot microorganism (Sclerotinia sclerotiorum); experiment: as above; assay type: cell-based; details: PDA plate medium, 50 mg/l, 1 to 3 days
[26] = tested on: cucumber gray mold microorganism; experiment: Cucumber gray mold preventing effect assay; assay type: in vivo, Botrytis cinerea; details: cucumber cotyledon phase, wettable formulation 500 mg/L sprayed at 1,000 L/ha, 4 days after inoculation
Experimental: The sprayed leaves were air-dried, and loaded with a paper disc (8 mm in diameter) soaked with a spore suspension of a cucumber gray mold microorganism, and kept at 20 degrees C. and a high humidity. 4 Days after inoculation, the cucumber gray mold severity was investigated, and the protective value was calculated by the following equation. [table]

[27] = tested on: Cladosporium microorganism (Cladosporium sp.); experiment: Antimicroorganism effect, mycelial extension on PDA plate; assay type: cell-based; details: PDA plate medium, 50 mg/l, 1 to 3 days
[28] = tested on: rice seedling blight microorganism (Rhizopus) (Rhizopus oryzae); experiment: as above; assay type: cell-based; details: PDA plate medium, 50 mg/l, 1 to 3 days
[29] = tested on: gray mold microorganism (Botritis cinerea); experiment: as above; assay type: cell-based; details: PDA plate medium, 50 mg/l, 1 to 3 days
[30] = tested on: wheat pink snow mold microorganism (Microdochium nivale); experiment: as above; assay type: cell-based; details: PDA plate medium, 50 mg/l, 1 to 3 days
[31] = tested on: Aspergillus microorganism (Aspergillus sp.); experiment: as above; assay type: cell-based; details: PDA plate medium, 50 mg/l, 1 to 3 days
[32] = tested on: barley stripe microorganism (Pyrenophora graminea); experiment: as above; assay type: cell-based; details: PDA plate medium, 50 mg/l, 1 to 3 days

For `OC1(Cn2cncn2)C(Cc2ccccc2Cl)CCC12CC2` (stereo not shown) [Compound I-5], the growth inhibition grade [1] was 5 (% Mycerial extension inhibition of 90% or higher), the growth inhibition grade [2] was 4 (% Mycerial extension inhibition of less than 90 to 70% or higher) and the growth inhibition grade [3] was 5 (% Mycerial extension inhibition of 90% or higher). The growth inhibition grade [4] was 5 (% Mycerial extension inhibition of 90% or higher), the growth inhibition grade [5] was 5 (% Mycerial extension inhibition of 90% or higher) and the growth inhibition grade [6] was 5 (% Mycerial extension inhibition of 90% or higher). The growth inhibition grade [7] was 5 (% Mycerial extension inhibition of 90% or higher), the growth inhibition grade [8] was 4 (% Mycerial extension inhibition of less than 90 to 70% or higher) and the growth inhibition grade [9] was 5 (% Mycerial extension inhibition of 90% or higher). For the same compound, the growth inhibition grade [10] was 5 (% Mycerial extension inhibition of 90% or higher), the growth inhibition grade [11] was 4 (% Mycerial extension inhibition of less than 90 to 70% or higher) and the growth inhibition grade [12] was 5 (% Mycerial extension inhibition of 90% or higher). For the same compound, the “Powdery mildew controlling index” value (wheat powdery mildew) was 4 (Protective value of 61 to 80), the growth inhibition grade [13] was 4 (% Mycerial extension inhibition of less than 90 to 70% or higher) and the growth inhibition grade [14] was 5 (% Mycerial extension inhibition of 90% or higher). The growth inhibition grade [15] was 4 (% Mycerial extension inhibition of less than 90 to 70% or higher), the growth inhibition grade [16] was 5 (% Mycerial extension inhibition of 90% or higher) and the protective value [17] was at least 80%. The growth inhibition grade [18] was 5 (% Mycerial extension inhibition of 90% or higher), the growth inhibition grade [19] was 5 (% Mycerial extension inhibition of 90% or higher) and the growth inhibition grade [20] was 5 (% Mycerial extension inhibition of 90% or higher). For the same compound, the protective value [21] was at least 80%, the growth regulation grade (rice plant) was 4 (% Plant height suppression of less than 50 to 30% or higher) and the growth inhibition grade [22] was 5 (% Mycerial extension inhibition of 90% or higher). The growth inhibition grade [23] was 5 (% Mycerial extension inhibition of 90% or higher), the growth inhibition grade [24] was 4 (% Mycerial extension inhibition of less than 90 to 70% or higher) and the growth inhibition grade [25] was 5 (% Mycerial extension inhibition of 90% or higher). The protective value [26] was at least 80%, the growth inhibition grade [27] was 5 (% Mycerial extension inhibition of 90% or higher) and the growth inhibition grade [28] was 4 (% Mycerial extension inhibition of less than 90 to 70% or higher). For the same compound, the growth inhibition grade [29] was 5 (% Mycerial extension inhibition of 90% or higher), the growth inhibition grade [30] was 4 (% Mycerial extension inhibition of less than 90 to 70% or higher) and the growth inhibition grade [31] was 5 (% Mycerial extension inhibition of 90% or higher). For the same compound, the growth inhibition grade [32] was 5 (% Mycerial extension inhibition of 90% or higher).
